# Some of these results come from one statement about several compounds together.
# Tested on: CLL cells
# Experiment: Median effect analysis of DMDAPatA with ABT-199 in CLL samples
# Format: cell-based, human
# Settings: DMDAPatA combined with ABT-199, four CLL samples
smiles,measurement,value
CC1(C)CCC(CN2CCN(c3ccc(C(=O)NS(=O)(=O)c4ccc(NCC5CCOCC5)c([N+](=O)[O-])c4)c(Oc4cnc5[nH]ccc5c4)c3)CC2)=C(c2ccc(Cl)cc2)C1 [ABT-199],combination index,less than 1
